PubChem BioAssay AID504774, Drosophila RNAi Screening Center, 2011
Assay: 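Genes required for cells to withstand methyl methanesulphonate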 (primary screen). Cell system: Drosophila Kc167 cells. Knock-down reagent: long dsRNA against Drosophila genes, about 0.25 µg dsRNA per well. Time to read-out: about 6 days: 3 days knock-down, then 3 days with or without MMS. Conditions: methyl methanesulphonate 0.004% (w/v) for 3 days after knock-down. Measured: 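Viability in wells given MMS, read as ATP luminescence, normalised by quantiles plate by plate and averaged across replicates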. Direction: mean viability with MMS and viability with MMS: higher = more surviving cells after MMS.
The screen tested about 23,000 reagents; below is a random part of those that have a named target and a result. 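Values are quantile-normalised luminescence on an arbitrary scale; higher means more cells surviving MMS.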 A plus sign joins genes that one reagent is predicted to hit. Further read-outs or replicates are left out here.

After knock-down of jar, the record shows mean viability with MMS 3.55e6; viability with MMS, replicate 1 = 4.04e6.
Silencing of Or94a gave: mean viability with MMS 3.74e6; viability with MMS, replicate 1 = 4.31e6.
ru gave mean viability with MMS 3.54e6; viability with MMS, replicate 1 = 4.05e6.
After knock-down of CG9458, the record shows mean viability with MMS 3.60e6; viability with MMS, replicate 1 = 4.10e6.
After knock-down of CG7945 + yellow-k the results were mean viability with MMS 3.44e6; viability with MMS, replicate 1 = 3.88e6.
Against CG9406, the entry reads mean viability with MMS 3.36e6; viability with MMS, replicate 1 = 3.68e6.
Knock-down of CG5039 gave: mean viability with MMS 3.73e6; viability with MMS, replicate 1 = 4.14e6.
Silencing of Cyp4d14 gave: mean viability with MMS 3.57e6; viability with MMS, replicate 1 = 4.08e6.
For CG32695, the values are mean viability with MMS 3.84e6; viability with MMS, replicate 1 = 4.27e6.
With knock-down of T3dh + pgc, the screen gave mean viability with MMS 3.67e6; viability with MMS, replicate 1 = 4.30e6.
CG4377 showed mean viability with MMS 3.64e6; viability with MMS, replicate 1 = 4.16e6.
With knock-down of sinu the results were mean viability with MMS 2.04e6; viability with MMS, replicate 1 = 4.23e6.
Cht11 showed mean viability with MMS 3.60e6; viability with MMS, replicate 1 = 4.05e6.
After knock-down of az2 the results were mean viability with MMS 3.15e6; viability with MMS, replicate 1 = 2.56e6.
